Results taken from paper PMC10163288.
The list shows a part of the results.

B1: il10ra_site1_normal_mot_HHH_b2_05323_000000159_0001_1_18_H_._HHH_b2_05670_af2_0001_0000200013_0000001_0 (protein)
chain: SSSSSDEVLELTLEAFRLALRGDPEEAKEVLEEALRLAEEAGNERLIRQIRNLLEVLERLSSSSS
B2: il10ra_site1_sap_18_mot_HHH_b1_06789_af2_000000041_0001_1_20_H_._HHH_b2_00598_0001_0000200011_0000001_0_0001 (protein)
chain: SSSDEEERAVELFVKAARLIEEGDEEEAEKLLEELRELVEKIGDPRFRMSVRFLEALLRAHSSSS
B3: il10ra_site1_sap_15_mot_HHH_b2_04680_000000215_0001_1_16_H_._HHH_b1_07329_0001_0000300030_0000001_0_0001 (protein)
chain: SSSSDERVRRIYEILRRVVELHHEGDREEAERLLEEAERLAEEANDRVLLAVIEFLERLLESSSS
B4: il10ra_site1_sap_18_mot_HHH_b2_07145_000000158_0001_24_40_H_._394de4c172568015e4b749d6fe9a249d_0001_af2_0001_0000900017_0000001_1_0001_af2pred_0001 (protein)
chain: SSSSSEEQERVSELLIRAFAAATQGNPEEAERLLEEAEEVAQEGNDPRLEQMVEIVKRELSSSSS
B5: il10ra_site1_sap_24_mot_HHH_b2_02354_af2_000000157_0001_40_56_H_._HHH_b1_08177_0001_0000200023_0000001_0_0001_af2pred_0001 (protein)
chain: SSSSSSREVVELLRKAAELLAEGNFEEAQRVLEEAEELAKEANDQTAEVLVEFLLKHVEQSSSSS
B6: il10ra_site1_sap_21_mot_HHH_b1_04771_000000013_0001_40_56_H_._HHH_b1_05247_0001_0000500023_0000001_0_0001 (protein)
chain: SSSSDQEEELVRAAIRLIEQLIKNGNPEAARMILWAAEKLAKEINNPELLEELEELKELLNSSSS
B7: il10ra_site1_sap_23_mot_HHH_b2_00066_000000124_0001_1_17_H_._HHH_b2_06951_af2_0001_0000300008_0000002_0_0001 (protein)
chain: SSSSDAEEEVEELLREAEELIERGDPREAIKVLAEAVRAAFHAGNEELLQAVWELVRKLRSSSSS
B8: il10ra_site1_normal_mot_HHH_b1_05326_000000242_0001_1_20_H_._HHH_b1_03012_af2_0001_0000300020_0000001_0 (protein)
chain: SSSSSEELEEALKLSREAFRLLLRGNEEEAEKVLREAEELLEKAGDPRLLRVVRDLLQVISSSSS
B9: il10ra_site1_sap_24_mot_HHH_b1_07256_000000044_0001_1_17_H_._HHH_b2_00272_0001_0000100004_0000003_0_0001_af2pred_0001 (protein)
chain: SSSSSEFREVVELLRKAAEALTDGNPEEAEELLEKAEEIARQINDEEALLLVEFLQKRVGSSSSS
B10: il10ra_site1_normal_mot_HHH_b1_05326_000000242_0001_1_20_H_._HHH_b2_04330_af2_0001_0000100008_0000001_0 (protein)
chain: SSSSSDNEEALRLSIHAFRLALRGNPEEARELLEEALELAERANNEKLFRQIEELLETLHSSSSS
B11: il10ra_site1_normal_mot_HHH_b1_06256_000000091_0001_42_58_H_._HHH_b1_07210_0001_0000100001_0000002_0 (protein)
chain: SSSSSAEEVAELLQRAVRLIFNGNPEEAQKLLEEAERIAEENNDEELERYIEAVERFLESHSSSS
B12: il10ra_site1_normal_mot_HHH_b1_00666_000000226_0001_43_56_H_._HHH_b2_03893_0001_0000400033_0000002_0 (protein)
chain: SSSSSSDIEELLREAEELIEEGDPEEALEVLTEAIRLALERGDEELLQELWELVLRLASSSSSSS
B13: il10ra_site1_normal_mot_HHH_b1_05357_000000034_0001_23_39_H_._HHH_b2_02051_0001_0000200015_0000001_0_af2pred_0001 (protein)
chain: SSSSDREEEIEEYEEELKELAERGDREKLAQVLIRAFSLATHLKDPELLERLKELARELKNSSSS
B14: il10ra_site1_sap_21_mot_HHH_b1_05757_000000171_0001_42_57_H_._HHH_b1_06570_0001_0000600045_0000001_0_0001 (protein)
chain: SSSSSDDRVEESVKRTLRAAKQLEDEEYARLALRFALALAEWANDEELQEEVRELLEEISSSSSS
B15: il10ra_site1_sap_19_mot_HHH_b1_03277_000000286_0001_44_57_H_._HHH_b1_06592_0001_0000100008_0000001_0_0001 (protein)
chain: SSSSDQKKELVEALERMIEQAYEWGDEELVKMLLEAAELLAEDSNDPRLREIVERLEELLSSSSS
B16: il10ra_site1_normal_mot_HHH_b2_02463_af2_000000222_0001_1_19_H_._HHH_b1_05522_af2_0001_0000300019_0000001_0 (protein)
chain: SSSSDEVLELIIEIARLLIQGDLERAEELIEEVEELVKELGDPRLEEAVEILKEALEANRSSSSS
B17: il10ra_site1_sap_13_mot_HHH_b2_00943_af2_000000149_0001_1_17_H_._HHH_b1_02941_af2_0001_0000200003_0000001_0_0001 (protein)
chain: SSSSDVSREAYELSRRAAELHSEGNPEEARELLEEAEELLREAGDRVILHNVEYVLELLNSSSSS
B18: il10ra_site1_sap_21_mot_HHH_b1_04693_000000238_0001_19_36_H_._HHH_b1_05537_af2_0001_0001000030_0000002_0_0001 (protein)
chain: SSSSDEEIEEEVRELLEEAKEIEDEHEFAQVLARAMRLAYELGNPELVEEVIRVAAKWLNRSSSS
B19: il10ra_site1_normal_mot_HHH_b2_04679_000000194_0001_21_38_H_._HHH_b2_08086_0001_0000100001_0000001_0 (protein)
chain: SSSSDRQEAYELIRRAIELLSEGDPRAEEVLEELRELVEQIGSPLLEFMVRLLEQQLERLKSSSS
B20: il10ra_site1_sap_5_mot_HHH_b1_00169_000000276_0001_1_18_H_._HHH_b1_06511_0001_0000200023_0000001_0_0001 (protein)
chain: SSSSSDEHQELLELLHELIQLMLEGDEEEAQKLAEEILKLAEELNDEKVFEMAEDLLKAISSSSS
B21: il10ra_site1_normal_mot_HHH_b2_07913_000000228_0001_1_19_H_._HHH_b2_01981_af2_0001_0000700029_0000001_0_af2pred_dldesign_0_af2pred (protein)
chain: SSSSSSEHEKSQRVIDLIRKAFEVDKEEAKKLLDEALKLAEELKSPTLIHAVEAARRALESSSSS
B22: il10ra_site1_normal_mot_HHH_b1_04771_000000013_0001_40_56_H_._HHH_b1_02827_0001_0000300017_0000001_0 (protein)
chain: SSSSSELLQQALELSLEAFRLALRGNPEEAREVLEEAEELVREAGDPQLLEVIEELLRALSSSSS
B23: il10ra_site1_normal_mot_HHH_b1_01821_000000158_0001_23_39_H_._HHH_b2_02229_0001_0000100005_0000001_0 (protein)
chain: SSSSSSDEEEVEELLEEAKEIEDREELVEVLLEALRIALQAQDPELLRLVWEVFKKLVSSSSSSS
B24: il10ra_site1_sap_17_mot_HHH_b1_07286_af2_000000054_0001_1_19_H_._HHH_b2_05896_0001_0000100012_0000001_0_0001 (protein)
chain: SSSSDERYLELALRFAKRLLEAGDPEAARFMLEAARELAERDGDEELLREVEELREEVERSSSSS

These binders were tested against il10ra, Q13651 (assay: yeast display titration).

Apparent Kd, inactive:
B1 no binding seen
B2 no binding seen
B3 no binding seen
B4 no binding seen
B5 no binding seen
B6 no binding seen
B7 no binding seen
B8 no binding seen
B9 no binding seen
B10 no binding seen
B11 no binding seen
B12 no binding seen
B13 no binding seen
B14 no binding seen
B15 no binding seen
B16 no binding seen
B17 no binding seen
B18 no binding seen
B19 no binding seen
B20 no binding seen
B21 no binding seen
B22 no binding seen
B23 no binding seen
B24 no binding seen

Quoted from the results shown for reference:
Apparent Kd, inactive:
B4 no binding seen
B5 no binding seen
